Where two headings read alike, the source gives them in different places. Results are given in words; binding and its absence hold for the method and conditions named. In cells and extracts the contact can be indirect. Some results given as binding are weak or reduced against the parent protein; the word gives no strength. For some of these results: Tags and fused reporters may be left off the sequences shown.

Chains of the proteins cited; added tags and fusions are not shown.
UniProt O95639: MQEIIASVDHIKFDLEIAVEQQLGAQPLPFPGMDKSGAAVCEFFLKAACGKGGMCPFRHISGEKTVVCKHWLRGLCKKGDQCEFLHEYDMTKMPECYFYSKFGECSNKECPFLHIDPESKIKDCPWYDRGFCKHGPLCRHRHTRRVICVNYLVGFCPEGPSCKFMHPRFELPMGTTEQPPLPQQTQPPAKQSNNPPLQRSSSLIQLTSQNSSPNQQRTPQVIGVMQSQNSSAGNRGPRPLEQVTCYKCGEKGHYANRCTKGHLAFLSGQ

The text below walks through data of paper doi:10.1101/2024.07.23.604837.

What all share (assay): co-IP
Experiment [1] deals with T1, FLAG-tagged ZFC3H1 N-terminal region (residues 1-990) (UniProt O60293).
T1 sequence: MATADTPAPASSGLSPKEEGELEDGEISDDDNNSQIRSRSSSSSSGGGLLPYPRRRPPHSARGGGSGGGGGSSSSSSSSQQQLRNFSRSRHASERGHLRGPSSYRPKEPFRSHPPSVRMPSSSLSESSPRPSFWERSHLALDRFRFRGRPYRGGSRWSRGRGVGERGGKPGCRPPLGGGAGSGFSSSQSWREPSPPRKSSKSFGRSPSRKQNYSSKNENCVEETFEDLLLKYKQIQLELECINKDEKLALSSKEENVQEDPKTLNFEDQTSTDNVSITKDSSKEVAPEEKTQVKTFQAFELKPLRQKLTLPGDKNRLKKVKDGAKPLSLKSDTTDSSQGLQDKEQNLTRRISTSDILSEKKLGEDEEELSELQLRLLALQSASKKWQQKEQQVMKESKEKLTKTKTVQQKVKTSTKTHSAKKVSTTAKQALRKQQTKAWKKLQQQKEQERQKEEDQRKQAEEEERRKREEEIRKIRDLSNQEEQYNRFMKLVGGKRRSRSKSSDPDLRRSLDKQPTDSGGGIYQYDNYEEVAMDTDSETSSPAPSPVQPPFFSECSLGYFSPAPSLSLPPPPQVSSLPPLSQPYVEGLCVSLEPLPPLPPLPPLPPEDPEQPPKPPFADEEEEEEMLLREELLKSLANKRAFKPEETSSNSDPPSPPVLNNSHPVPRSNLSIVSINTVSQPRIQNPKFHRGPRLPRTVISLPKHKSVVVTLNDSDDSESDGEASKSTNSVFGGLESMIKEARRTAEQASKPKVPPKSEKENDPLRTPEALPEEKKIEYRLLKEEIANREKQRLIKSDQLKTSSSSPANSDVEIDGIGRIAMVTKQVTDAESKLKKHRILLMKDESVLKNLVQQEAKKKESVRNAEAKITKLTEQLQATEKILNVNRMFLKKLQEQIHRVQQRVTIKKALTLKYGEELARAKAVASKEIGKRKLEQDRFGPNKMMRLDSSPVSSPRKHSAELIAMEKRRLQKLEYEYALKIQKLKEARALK

Experiment [2] deals with FLAG-tagged ZFC3H1, full length (UniProt O60293).
The target is the same in experiment [3]. The source holds these as a separate data set.
The target in experiment [4] is T2, FLAG-tagged ZFC3H1, full length, O60293.
T2 chain: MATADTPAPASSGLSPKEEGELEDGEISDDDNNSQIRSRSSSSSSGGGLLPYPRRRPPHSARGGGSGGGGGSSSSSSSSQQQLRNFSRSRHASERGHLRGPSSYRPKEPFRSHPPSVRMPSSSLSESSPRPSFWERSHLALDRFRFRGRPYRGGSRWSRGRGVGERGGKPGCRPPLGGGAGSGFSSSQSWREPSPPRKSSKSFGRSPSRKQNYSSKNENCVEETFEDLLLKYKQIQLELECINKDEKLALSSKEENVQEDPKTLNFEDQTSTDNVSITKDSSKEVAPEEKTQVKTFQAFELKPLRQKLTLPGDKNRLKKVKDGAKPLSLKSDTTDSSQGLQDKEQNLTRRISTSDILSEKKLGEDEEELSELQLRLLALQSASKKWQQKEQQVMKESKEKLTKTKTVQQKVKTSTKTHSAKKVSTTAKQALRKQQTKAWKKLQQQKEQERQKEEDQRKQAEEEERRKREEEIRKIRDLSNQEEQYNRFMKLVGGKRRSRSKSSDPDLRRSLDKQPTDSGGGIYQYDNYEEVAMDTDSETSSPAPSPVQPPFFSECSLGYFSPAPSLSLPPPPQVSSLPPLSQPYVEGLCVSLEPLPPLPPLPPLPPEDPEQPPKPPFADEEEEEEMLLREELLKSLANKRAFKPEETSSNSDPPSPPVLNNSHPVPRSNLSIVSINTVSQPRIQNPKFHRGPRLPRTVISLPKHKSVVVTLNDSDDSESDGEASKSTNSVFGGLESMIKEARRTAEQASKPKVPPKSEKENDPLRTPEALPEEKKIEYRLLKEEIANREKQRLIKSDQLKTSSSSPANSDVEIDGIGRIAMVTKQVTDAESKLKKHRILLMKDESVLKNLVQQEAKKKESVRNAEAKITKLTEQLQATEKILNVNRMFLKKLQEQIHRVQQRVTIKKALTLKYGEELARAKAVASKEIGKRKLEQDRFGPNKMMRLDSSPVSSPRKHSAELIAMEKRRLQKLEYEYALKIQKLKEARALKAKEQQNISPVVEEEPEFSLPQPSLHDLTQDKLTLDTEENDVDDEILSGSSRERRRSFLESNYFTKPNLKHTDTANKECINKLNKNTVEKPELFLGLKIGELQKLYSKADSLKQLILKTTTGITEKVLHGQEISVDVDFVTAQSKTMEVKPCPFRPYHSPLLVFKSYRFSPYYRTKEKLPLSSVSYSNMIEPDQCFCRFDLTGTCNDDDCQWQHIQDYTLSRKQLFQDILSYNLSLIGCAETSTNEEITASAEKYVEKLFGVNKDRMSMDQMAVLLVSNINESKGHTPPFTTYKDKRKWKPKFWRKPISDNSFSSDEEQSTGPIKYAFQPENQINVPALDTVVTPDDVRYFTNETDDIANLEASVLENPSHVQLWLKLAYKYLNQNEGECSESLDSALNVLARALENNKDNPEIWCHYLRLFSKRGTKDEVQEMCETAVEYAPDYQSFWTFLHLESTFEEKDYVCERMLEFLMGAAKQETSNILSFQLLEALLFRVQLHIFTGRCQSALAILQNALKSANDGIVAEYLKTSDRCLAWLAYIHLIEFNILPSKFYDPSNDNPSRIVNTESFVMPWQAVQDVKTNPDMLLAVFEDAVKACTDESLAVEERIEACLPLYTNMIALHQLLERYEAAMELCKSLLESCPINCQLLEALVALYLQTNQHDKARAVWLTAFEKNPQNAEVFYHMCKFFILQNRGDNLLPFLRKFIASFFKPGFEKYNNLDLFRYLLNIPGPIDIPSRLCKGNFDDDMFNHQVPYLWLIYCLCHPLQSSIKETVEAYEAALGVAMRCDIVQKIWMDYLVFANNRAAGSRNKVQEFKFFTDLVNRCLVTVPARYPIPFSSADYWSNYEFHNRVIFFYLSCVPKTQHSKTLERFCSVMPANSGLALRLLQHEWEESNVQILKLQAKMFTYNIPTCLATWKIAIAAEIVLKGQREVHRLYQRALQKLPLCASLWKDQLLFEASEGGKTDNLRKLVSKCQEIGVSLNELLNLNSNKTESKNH
Particulars: remark: other sources report otherwise.

Experiment [5] has as its target T1, FLAG-tagged ZFC3H1 N-terminal region (residues 1-990). The source holds these as a separate data set.
In experiment [6] the target is FLAG-tagged ZFC3H1, full length (UniProt O60293). The source holds these as a separate data set.

For the molecule CPSF30 (from UniProt O95639 1-269), the binding entry in experiment [1] is “binds”; in experiment [2], “binds weakly”; in experiment [3], “binds weakly”.

B1: PABPN1, Q86U42 1-306 (protein)
chain: MAAAAAAAAAAGAAGGRGSGPGRRRHLVPGAGGEAGEGAPGGAGDYGNGLESEELEPEELLLEPEPEPEPEEEPPRPRAPPGAPGPGPGSGAPGSQEEEEEPGLVEGDPGDGAIEDPELEAIKARVREMEEEAEKLKELQNEVEKQMNMSPPPGNAGPVIMSIEEKMEADARSIYVGNVDYGATAEELEAHFHGCGSVNRVTILCDKFSGHPKGFAYIEFSDKESVRTSLALDESLFRGRQIKVIPKRTNRPGISTTDRGFPRARYRARTTNYNSSRSRFYSGFNSRPRGRVYRGRARATSWYSPY
As for B1, the binding result in experiment [4] is “binds”.

B2: CPSF100 (protein, UniProt Q9P2I0 1-782)
chain: MTSIIKLTTLSGVQEESALCYLLQVDEFRFLLDCGWDEHFSMDIIDSLRKHVHQIDAVLLSHPDPLHLGALPYAVGKLGLNCAIYATIPVYKMGQMFMYDLYQSRHNTEDFTLFTLDDVDAAFDKIQQLKFSQIVNLKGKGHGLSITPLPAGHMIGGTIWKIVKDGEEEIVYAVDFNHKREIHLNGCSLEMLSRPSLLITDSFNATYVQPRRKQRDEQLLTNVLETLRGDGNVLIAVDTAGRVLELAQLLDQIWRTKDAGLGVYSLALLNNVSYNVVEFSKSQVEWMSDKLMRCFEDKRNNPFQFRHLSLCHGLSDLARVPSPKVVLASQPDLECGFSRDLFIQWCQDPKNSIILTYRTTPGTLARFLIDNPSEKITEIELRKRVKLEGKELEEYLEKEKLKKEAAKKLEQSKEADIDSSDESDIEEDIDQPSAHKTKHDLMMKGEGSRKGSFFKQAKKSYPMFPAPEERIKWDEYGEIIKPEDFLVPELQATEEEKSKLESGLTNGDEPMDQDLSDVPTKCISTTESIEIKARVTYIDYEGRSDGDSIKKIINQMKPRQLIIVHGPPEASQDLAECCRAFGGKDIKVYMPKLHETVDATSETHIYQVRLKDSLVSSLQFCKAKDAELAWIDGVLDMRVSKVDTGVILEEGELKDDGEDSEMQVEAPSDSSVIAQQKAMKSLFGDDEKETGEESEIIPTLEPLPPHEVPGHQSVFMNEPRLSDFKQVLLREGIQAEFVGGVLVCNNQVAVRRTETGRIGLEGCLCQDFYRIRDLLYEQYAIV
For the molecule B2, the binding entry in experiment [5] was “binds”; in experiment [6], “binds weakly”; in experiment [3], “binds weakly”.

B3: CPSF73 (protein, UniProt Q9UKF6 1-684)
chain: MSAIPAEESDQLLIRPLGAGQEVGRSCIILEFKGRKIMLDCGIHPGLEGMDALPYIDLIDPAEIDLLLISHFHLDHCGALPWFLQKTSFKGRTFMTHATKAIYRWLLSDYVKVSNISADDMLYTETDLEESMDKIETINFHEVKEVAGIKFWCYHAGHVLGAAMFMIEIAGVKLLYTGDFSRQEDRHLMAAEIPNIKPDILIIESTYGTHIHEKREEREARFCNTVHDIVNRGGRGLIPVFALGRAQELLLILDEYWQNHPELHDIPIYYASSLAKKCMAVYQTYVNAMNDKIRKQININNPFVFKHISNLKSMDHFDDIGPSVVMASPGMMQSGLSRELFESWCTDKRNGVIIAGYCVEGTLAKHIMSEPEEITTMSGQKLPLKMSVDYISFSAHTDYQQTSEFIRALKPPHVILVHGEQNEMARLKAALIREYEDNDEVHIEVHNPRNTEAVTLNFRGEKLAKVMGFLADKKPEQGQRVSGILVKRNFNYHILSPCDLSNYTDLAMSTVKQTQAIPYTGPFNLLCYQLQKLTGDVEELEIQEKPALKVFKNITVIQEPGMVVLEWLANPSNDMYADTVTTVILEVQSNPKIRKGAVQKVSKKLEMHVYSKRLEIMLQDIFGEDCVSVKDDSILSVTVDGKTANLNLETRTVECEEGSEDDESLREMVELAAQRLYEALTPVH
Regarding B3, the figures for the binding result in experiment [5], in experiment [6] and in experiment [3] were “binds”, “binds weakly” and “binds weakly”, respectively.
